Test results as given in PubChem BioAssay AID188 (DTP/NCI, 2004).
The mice bore no tumour; each value counts animals alive of those treated. Counts of survivors are from the toxicity check (mostly the fifth day) where no day follows; animals may have died later. Schedule codes are those of the source, taken here to give the interval after Q, in days (D) or hours (H), and the number of doses after X.

Test system: CD2F1 mice, nontumored, toxicity/survival
Assay: NCI In Vivo Anticancer Drug Screen. Data for tumor model Nontumored Animals (Toxicity Test) in CD2F1 (CDF1) mice

Structure (SMILES): CNNCc1ccc(C(=O)NC(N)=O)cc1
- survivor count (dose: 8.0 mg/kg/injection, schedule: Q03HX024 (ip), vehicle: saline): 8 of 8
- survivor count (dose: 16.0 mg/kg/injection, schedule: Q01DX005 (iv), vehicle: saline): 8 of 8
- survivor count (dose: 16.0 mg/kg/injection, schedule: Q03HX008 (ip), vehicle: saline): 8 of 8
- survivor count (dose: 16.0 mg/kg/injection, schedule: Q03HX016 (ip), vehicle: saline): 8 of 8
- survivor count (dose: 16.0 mg/kg/injection, schedule: Q03HX024 (ip), vehicle: saline): 8 of 8
- survivor count (dose: 32.0 mg/kg/injection, schedule: Q01DX005 (iv), vehicle: saline): 8 of 8
- survivor count (dose: 32.0 mg/kg/injection, schedule: Q01DX008 (ip), vehicle: saline): 8 of 8
- survivor count (dose: 32.0 mg/kg/injection, schedule: Q03HX008 (ip), vehicle: saline): 8 of 8
- survivor count (dose: 32.0 mg/kg/injection, schedule: Q03HX016 (ip), vehicle: saline): 8 of 8
- survivor count (dose: 32.0 mg/kg/injection, schedule: Q03HX024 (ip), vehicle: saline): 8 of 8
- survivor count (dose: 64.0 mg/kg/injection, schedule: Q01DX005 (iv), vehicle: saline): 8 of 8
- survivor count (dose: 64.0 mg/kg/injection, schedule: Q01DX008 (ip), vehicle: saline): 8 of 8
- survivor count (dose: 64.0 mg/kg/injection, schedule: Q01DX009 (oral), vehicle: saline): 8 of 8
- survivor count (dose: 64.0 mg/kg/injection, schedule: Q03HX008 (ip), vehicle: saline): 8 of 8
- survivor count (dose: 64.0 mg/kg/injection, schedule: Q03HX016 (ip), vehicle: saline): 8 of 8
- survivor count (dose: 64.0 mg/kg/injection, schedule: Q03HX024 (ip), vehicle: saline): 8 of 8
- survivor count (dose: 64.0 mg/kg/injection, schedule: Q04DX003 (ip), vehicle: saline): 8 of 8
- survivor count (dose: 128.0 mg/kg/injection, schedule: Q01DX001 (ip), vehicle: saline): 8 of 8
- survivor count (dose: 128.0 mg/kg/injection, schedule: Q01DX001 (iv), vehicle: saline): 8 of 8
- survivor count (dose: 128.0 mg/kg/injection, schedule: Q01DX001 (oral), vehicle: saline): 8 of 8
- survivor count (dose: 128.0 mg/kg/injection, schedule: Q01DX005 (iv), vehicle: saline): 8 of 8
- survivor count (dose: 128.0 mg/kg/injection, schedule: Q01DX008 (ip), vehicle: saline): 8 of 8
- survivor count (dose: 128.0 mg/kg/injection, schedule: Q01DX009 (oral), vehicle: saline): 7 of 8
- survivor count (dose: 128.0 mg/kg/injection, schedule: Q03HX008 (ip), vehicle: saline): 8 of 8
- survivor count (dose: 128.0 mg/kg/injection, schedule: Q03HX016 (ip), vehicle: saline): 8 of 8
- survivor count (dose: 128.0 mg/kg/injection, schedule: Q04DX003 (ip), vehicle: saline): 8 of 8
- survivor count (dose: 128.0 mg/kg/injection, schedule: Q08DX002 (ip), vehicle: saline): 8 of 8
- survivor count (dose: 256.0 mg/kg/injection, schedule: Q01DX001 (ip), vehicle: saline): 8 of 8
- survivor count (dose: 256.0 mg/kg/injection, schedule: Q01DX001 (iv), vehicle: saline): 8 of 8
- survivor count (dose: 256.0 mg/kg/injection, schedule: Q01DX001 (oral), vehicle: saline): 8 of 8
- survivor count (dose: 256.0 mg/kg/injection, schedule: Q01DX005 (iv), vehicle: saline): 8 of 8
- survivor count (dose: 256.0 mg/kg/injection, schedule: Q01DX008 (ip), vehicle: saline): 6 of 8
- survivor count (dose: 256.0 mg/kg/injection, schedule: Q01DX009 (oral), vehicle: saline): 8 of 8
- survivor count (dose: 256.0 mg/kg/injection, schedule: Q04DX003 (ip), vehicle: saline): 8 of 8
- survivor count (dose: 256.0 mg/kg/injection, schedule: Q08DX002 (ip), vehicle: saline): 8 of 8
- survivor count (dose: 512.0 mg/kg/injection, schedule: Q01DX001 (ip), vehicle: saline): 8 of 8
- survivor count (dose: 512.0 mg/kg/injection, schedule: Q01DX001 (iv), vehicle: saline): 8 of 8
- survivor count (dose: 512.0 mg/kg/injection, schedule: Q01DX001 (oral), vehicle: saline): 8 of 8
- survivor count (dose: 512.0 mg/kg/injection, schedule: Q01DX008 (ip), vehicle: saline): 3 of 8
- survivor count (dose: 512.0 mg/kg/injection, schedule: Q01DX009 (oral), vehicle: saline): 7 of 8
- survivor count (dose: 512.0 mg/kg/injection, schedule: Q04DX003 (ip), vehicle: saline): 8 of 8
- survivor count (dose: 512.0 mg/kg/injection, schedule: Q08DX002 (ip), vehicle: saline): 7 of 8
- survivor count (dose: 1024.0 mg/kg/injection, schedule: Q01DX001 (ip), vehicle: saline): 0 of 8
- survivor count (dose: 1024.0 mg/kg/injection, schedule: Q01DX001 (iv), vehicle: saline): 0 of 8
- survivor count (dose: 1024.0 mg/kg/injection, schedule: Q01DX001 (oral), vehicle: saline): 3 of 8
- survivor count (dose: 1024.0 mg/kg/injection, schedule: Q08DX002 (ip), vehicle: saline): 1 of 8

Structure (SMILES): COc1ccc(-c2nc3c(N)nc(N)nc3nc2N)cc1OC
- survivor count (dose: 1.0 mg/kg/injection, schedule: Q01DX001 (ip), vehicle: water): 2 of 2
- survivor count (dose: 10.0 mg/kg/injection, schedule: Q01DX001 (ip), vehicle: water): 2 of 2
- survivor count (dose: 100.0 mg/kg/injection, schedule: Q01DX001 (ip), vehicle: water): 2 of 2

Structure (SMILES): COc1ccc2c(c1OC(C)=O)-c1cc(OC(C)=O)cc3c1C(C2)N(C(=O)CN(CCCl)CCCl)CC3 (stereo not drawn)
- survivor count (dose: 1.0 mg/kg/injection, schedule: Q01DX001 (ip), vehicle: DMSO): 2 of 2
- survivor count (dose: 10.0 mg/kg/injection, schedule: Q01DX001 (ip), vehicle: DMSO): 2 of 2
- survivor count (dose: 100.0 mg/kg/injection, schedule: Q01DX001 (ip), vehicle: DMSO): 2 of 2

Structure (SMILES): Cn1cnc([N+](=O)[O-])c1Sc1ncnc2nc[nH]c12
- survivor count (dose: 50.0 mg/kg/injection, schedule: Q01DX001 (ip), vehicle: saline with Tween-80): 3 of 3
- survivor count (dose: 50.0 mg/kg/injection, schedule: Q01DX005 (ip), vehicle: saline with Tween-80): 3 of 3
- survivor count (dose: 100.0 mg/kg/injection, schedule: Q01DX001 (ip), vehicle: saline with Tween-80): 3 of 3
- survivor count (dose: 100.0 mg/kg/injection, schedule: Q01DX005 (ip), vehicle: saline with Tween-80): 3 of 3
- survivor count (dose: 200.0 mg/kg/injection, schedule: Q01DX001 (ip), vehicle: saline with Tween-80): 3 of 3
- survivor count (dose: 200.0 mg/kg/injection, schedule: Q01DX005 (ip), vehicle: saline with Tween-80): 3 of 3
- survivor count (dose: 360.0 mg/kg/injection, schedule: Q01DX001 (ip), vehicle: saline with Tween-80): 3 of 3
- survivor count (dose: 400.0 mg/kg/injection, schedule: Q01DX001 (ip), vehicle: saline with Tween-80): 3 of 3
- survivor count (dose: 400.0 mg/kg/injection, schedule: Q01DX005 (ip), vehicle: saline with Tween-80): 1 of 3
- survivor count (dose: 600.0 mg/kg/injection, schedule: Q01DX001 (ip), vehicle: saline with Tween-80): 3 of 3
- survivor count (dose: 1000.0 mg/kg/injection, schedule: Q01DX001 (ip), vehicle: saline with Tween-80): 0 of 3
